Data from patent US7749981B2, “Drug-eluting stents coated with non-nucleotide P2Y12 receptor antagonist compound” (Inspire Pharmaceuticals, Inc., priority 2005, dated 2010).
Some results were stated once for a whole list of compounds, not compound by compound. At least one compound was matched to its structure with a doubt left.

System: washed human platelets
Assay: Inhibition of ADP-induced platelet aggregation in washed human platelets
Format: cell-based
Conditions: read-out: PLATELET DATA IC50 (uM) Washed Platelets, agonist challenge (ADP) typically 1-5 μM, average of two experiments or more
Description: Isolation of Platelets: Human blood is obtained from informed healthy adult volunteers. Blood is collected into one-sixth volume of acid/citrate/dextrose (ACD) buffer (85 mM sodium citrate, 65 mM citric acid, and 100 mM glucose). Collected blood is placed in a water bath at 37° C. for 30 minutes. Blood is then centrifuged at 275×g for 16 minutes at room temperature and the platelet-rich plasma is removed and centrifuged at 2200×g for 13 minutes at room temperature. […]
Aggregation Studies: ADP-induced platelet aggregation is determined by measuring the transmission of light through a 0.5 ml suspension of stirred (1000 rpm) washed platelets in a lumi-aggregometer at 37° C. […] Platelet aggregation is initiated by the addition of indicated concentrations of ADP or other agonists, and the light transmission is continuously recorded for at least 8 min. When inhibitors of platelet aggregation are tested, platelets are incubated for 2 min in the presence of indicated concentrations of inhibitor before addition of ADP or other agonists, and the response is recorded for at least 8 min. The potency of agonists and inhibitors of platelet aggregation is calculated from both the rate of aggregation and the maximal extent of aggregation obtained for each determination by fitting the data to a four-parameter logistic equation using the GraphPad software package (GraphPad Corp. San Diego, Calif.). […]

In the case of CCNC(=O)Nc1ncnc2c1ncn2C1CC(COCc2ncccc2C(=O)O)C2OC(/C=C/c3ccccc3)OC21 (stereo not drawn) [Compound 130, 2-{6-[6-(3-Ethyl-ureido)-purin-9-yl]-2-trans-styryl-tetrahydro-cyclopenta[1,3]dioxol-4-ylmethoxymethyl}-nicotinic acid], the IC50 is reported as < 0.1 µM.
